Earlier results as cited in patent US20160151298A1, “DOCETAXEL POLYMERIC NANOPARTICLES AND METHODS OF TREATING CANCERS USING SAME” (BIND THERAPEUTICS, INC., priority 2013, published 2016).

Solubility in water: practically insoluble in water
Compound: CC(=O)O[C@@]12CO[C@@H]1C[C@H](O)[C@@]1(C)C(=O)[C@H](O)C3=C(C)[C@@H](OC(=O)[C@H](O)[C@@H](NC(=O)OC(C)(C)C)c4ccccc4)C[C@@](O)([C@@H](OC(=O)c4ccccc4)[C@H]21)C3(C)C [docetaxel anhydrous, (2R,3S)—N-carboxy-3-phenylisoserine, N-tert-butyl ester, 13-ester with 5-20-epoxy-1,2,4,7,10,13-hexahydroxytax-11-en-9-one 4-acetate 2-benzoate]
